{"source": "patent US20250000942A1", "about": "(Prince Biotech, LLC, priority 2017, published 2025)", "assay": "peptide made by a vendor", "conditions": "whole synthesis, HPLC and mass spectrometry", "note": "Some peptides are written in HELM: one residue between dots, names in brackets for other building blocks, links after the first $."}
{"substance": "PEPTIDE1{M.V.R.I.K.P.G.S.A.N.K.P.S.D.D}$$$$V2.0", "values": [{"measurement": "final HPLC purity", "value": ">95", "unit": "%"}, {"measurement": "final ms purity", "value": ">95", "unit": "%"}]}
